## Primary screen of a compound library

Chains of the proteins cited; added tags and fusions are not shown. Residues count along the entry.
UniProt P9WNZ1, whole entry: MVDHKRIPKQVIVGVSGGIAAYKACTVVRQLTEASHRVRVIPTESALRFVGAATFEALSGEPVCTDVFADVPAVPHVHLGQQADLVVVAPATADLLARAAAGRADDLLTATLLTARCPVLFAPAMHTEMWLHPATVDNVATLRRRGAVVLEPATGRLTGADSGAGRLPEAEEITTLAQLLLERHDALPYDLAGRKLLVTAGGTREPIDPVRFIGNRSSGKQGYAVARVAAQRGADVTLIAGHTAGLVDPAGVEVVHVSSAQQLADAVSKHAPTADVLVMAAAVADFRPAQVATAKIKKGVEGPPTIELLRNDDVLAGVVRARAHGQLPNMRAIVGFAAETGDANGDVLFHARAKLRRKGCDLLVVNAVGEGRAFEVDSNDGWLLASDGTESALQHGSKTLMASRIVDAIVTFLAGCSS
UniProt A4I591, 1-473: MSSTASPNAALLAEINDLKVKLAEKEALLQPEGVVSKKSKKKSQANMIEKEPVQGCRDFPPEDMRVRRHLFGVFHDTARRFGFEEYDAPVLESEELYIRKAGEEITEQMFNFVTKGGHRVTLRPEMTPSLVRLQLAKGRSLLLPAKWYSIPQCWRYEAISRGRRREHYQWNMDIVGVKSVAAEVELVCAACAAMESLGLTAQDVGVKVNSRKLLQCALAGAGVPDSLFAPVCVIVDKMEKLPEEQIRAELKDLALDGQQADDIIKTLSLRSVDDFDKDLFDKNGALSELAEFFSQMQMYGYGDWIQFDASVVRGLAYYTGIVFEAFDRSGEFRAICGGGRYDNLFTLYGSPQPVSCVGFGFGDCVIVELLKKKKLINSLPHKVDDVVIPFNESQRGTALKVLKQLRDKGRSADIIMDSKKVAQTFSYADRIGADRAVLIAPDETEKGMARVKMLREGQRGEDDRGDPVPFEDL

Source: ChEMBL document CHEMBL3988442, “University of Dundee, Small-Polar-MMV Screening Library” (2021).

A: 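Coenzyme A biosynthesis protein CoaBC, Mycobacterium tuberculosis (UniProt P9WNZ1). Enzyme assay of CoaBC with a phosphate dye (Biomol Green) read at 650 nm. Compounds at 30 µM. Direction is inferred from only a few compounds that gave an IC50; most scored high, so higher reads as stronger inhibition. Most strong results did not repeat in a second test. Of about 67,000 compounds tested this way, about 40 (0.06%) reached 50% or more in at least one test.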
B: 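Histidine-tRNA ligase, Leishmania infantum (UniProt A4I591). Enzyme assay of histidyl-tRNA synthetase; the read-out is not stated. Concentration: 30 µM. Direction is inferred from retests: higher values go with stronger inhibition. The assay is labelled LdHisRS but filed under L. infantum. Of about 69,000 compounds tested this way, about 410 (0.6%) reached 50% or more in at least one test.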
C: 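Cell assay of Leishmania donovani living inside macrophages; the read-out is not stated. Tested at 30 µM. Direction is inferred from retests: higher values go with stronger inhibition. About 69,000 compounds were tested under these conditions; 1.5% (about 1,000) showed 50% or more at least once.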

Results are given as percent effect.
How 0% and 100% were set is not recorded. Most values in the screen are low, and negative values occur.
This is an unselected part of the compounds tested.
Two or more numbers in one place are separate tests of the same structure; such repeats can differ widely.
A dash means the value is not listed here; it may have been measured.

| structure | A | B | C |
|---|---|---|---|
| `CSc1ccsc1C(=O)NC(Cc1ccccc1)C(N)=O` (stereo not shown) | -1.603% | 9.589% | 1.541% |
| `CC(NCc1ccsc1)c1ccc2c(c1)NC(=O)CO2` (stereo not shown) | 3.422% | 16.07% | 42.81% |
| `Cc1noc(CNc2ccccc2N2CCCCC2)n1` | -1.653% | 9.333% | 27.21% |
| `CCn1ncnc1CN1CCc2[nH]cnc2C1CCc1ccccc1` (stereo not shown) | -4.132% | 13.33% | 20.09% |
| `O=C(O)C(F)(F)F.[H][C@@]12COC[C@@H](CC(=O)N3CCCCO3)[C@]1([H])CN(Cc1c(C)noc1C)C2` | - | - | 0.03168% |
| `C[C@]1(O)CN(Cc2ncccc2F)CC[C@@H]1Oc1cccc(F)c1` | 2.67% | 18.84% | 5.504% and 7.471% |
| `CC(C(=O)N1CCCN(Cc2ccc(C#N)cc2)CC1)n1ccnc1` (stereo not shown) | -5.585% | 23.2% | 1.38% |
| `Cc1nc(C)c(CN2CCOC(CNc3cccnn3)C2)s1` (stereo not shown) | 10.81% | 17.54% | 19.86% |
| `Cc1ccc(C(=O)N(Cc2ccc(F)cc2)C2CC2)c(=O)[nH]1` | 10.91% | 8.219% | 17.72% |
| `Cc1csc(C2CCCCN2C(=O)CCCn2cncn2)n1` (stereo not shown) | 3.659% | 1.667% | 29.01% |
| `O=C(Nc1ccccc1)C1CCCN(C(=O)Cn2cncn2)C1` (stereo not shown) | 4.959% | 18.67% | -4.59% |
| `O=C(O)C(F)(F)F.[H][C@@]12CN(Cc3ccco3)CCC[C@]1(C(=O)O)CN(c1ncccn1)C2` | - | - | 21.76% |
| `CC(C)CCN1C[C@H]2C[C@H](C(=O)N3CCCC3)[C@@H](C1)O2` | 1.463% | 11.32% | - |
| `Cc1cnc2c(S(=O)(=O)NCC3CC3)cccc2c1` | 1.695% | 13.16% | -6.973% |
| `CC(C)c1noc(CCC(=O)NCC2CCOC2)n1` (stereo not shown) | 4.563% | 22.97% | 6.239% |
| `CN1CCC2(COCc3cnc(N4CCOCC4)nc32)C1` (stereo not shown) | 0.6729% | 3.883% | - |
| `Cc1cc(CN2C[C@@H]3COC[C@]3(COCC(=O)N(C)C)C2)no1` | 0.7407% | 8.333% | - |
| `COC1CN(C(=O)Nc2ccccc2)CCC(=O)N(C)c2ccccc21` (stereo not shown) | 2.179% | 12.24% | -6.352% |
| `CCOc1ccc(Cl)c(C(=O)N2CCN(C(=O)OC)CC2)n1` | 3.226% | 12.17% | 7.993% |
| `Cc1cc(C)n(CC2CCCCN2CC(=O)Nc2ccncc2)n1` (stereo not shown) | -1.623% | 11.57% | 18.3% |
| `Cc1ccc(NC2CCN(C(=O)Cn3nc(C)cc3C)CC2)nn1` | 0.5319% | 26.4% | 22.49% |
| `O=C(NCc1cccnc1)N1CCn2c(Cn3cccn3)cnc2C1` | 1.015% | 11.76% | -24.69% |
| `CC(=O)N1CCC2(CC1)CC(NC(=O)N(C)C)c1cc(C)ccc12` (stereo not shown) | -6.042% | -1.389% | 4.093% |
| `[H][C@@]12CN(Cc3csc(C)n3)C[C@]1([H])OCCN2c1ncc(F)cn1` | - | - | -16.93% |
| `N[C@@H]1CCCN(C(=O)Cc2c[nH]c3ccccc23)[C@H]1c1ccccc1F` | 0.4785% | -2.878% | 38.86% |
| `COc1ccc2c(=O)n(CC3CC3)ccc2c1OC` | 1.008% | 9.091% | -5.202% |
| `Cc1n[nH]c(C)c1CCC(=O)NCC1CCOc2ccccc2C1` (stereo not shown) | -0.6098% | 19.78% | 31.82% |
| `CCOCc1ccc(CNC(=O)N2CCC(C(N)=O)C2)cc1` (stereo not shown) | -1.312% | 10.17% | 22.2% |
| `Cc1cc(NCc2cc(C)oc2C(F)(F)F)n2nc(C)cc2n1` | 3.68% | 16.39% | 41.42% |
| `CN1Cc2c(C(=O)Nc3cccnc3)ncn2-c2ccccc2S1(=O)=O.O=C(O)C(F)(F)F` | - | - | -0.1066% |
| `c1ccc(N2CCCC3(CCN(Cc4nccs4)C3)C2)nc1` (stereo not shown) | -5.32% | 29.27% | 40.77% |
| `CCN1CCC(CNCc2cc(OC)ccc2OC)C1` (stereo not shown) | -37.47% | 3.846% | -7.843% |
| `[H][C@@]12CNC[C@]1(C(=O)OC)CN(Cc1nc(C)c[nH]1)C2` | - | - | -7.324% |
| `Cn1ncc2ccc(C3CCCN(Cc4ccsc4)C3)nc21` (stereo not shown) | -7.895% | 14.39% | 29.86% |
| `CC(C)c1ccc(OCCC(=O)N2CCC(C(N)=O)CC2)cc1` | 6.971% | 19.64% | 27.95% |
| `O=S(=O)(C1CC1)N1CC[C@]2(C[C@@H](Oc3ncccc3F)CO2)C1` | 7.563% | 3.636% | - |
| `Cc1ccc(-c2ncc(CNc3cnccc3CO)s2)o1` | 1.882% | 16.95% | 38.06% |
| `CC(NC(=O)COCC(F)(F)F)c1nnc2n1CCCCC2` (stereo not shown) | 19.83% | 13.46% | 11.26% |
| `COCCCN(Cc1ccccn1)S(=O)(=O)c1ccc(OC)cc1` | 1.302% | -3.371% | -21.69% |
| `CN(C)Cc1cc(=O)n2c(n1)CN(C(=O)Cc1cccs1)CCC2` | -0.3257% | 31.43% | - |
| `Cn1nc(C#N)c2c1CN(C(=O)c1nc[nH]n1)CCC2` | -17.98% | -92% | -12.91% |
| `COCCCNC(=O)Nc1cccc2ncccc12` | 12.94% | 16.13% | -8.159% |
| `Cc1nn(C)c2cnn(Cc3ccc(C(=O)NC4CC4)cc3)c12` | -0.9346% | 11.5% | 14.6% |
| `CC(O)CN(C(=O)NC1CCN(CC2CCCCC2)CC1)C(C)C` (stereo not shown) | 6.771% | 14.61% | 35.8% |
| `Cc1ccc(NC2CCN(C(=O)CCn3nc(C)cc3C)CC2)nn1` | 7.928% | 20.18% | 22.4% |
| `CC(C)Cn1cc(NCc2cscn2)cn1` | 2.724% | 29.73% | 18.46% |
| `CCN(Cc1ccncc1)C(=O)C1COc2c(cccc2OC)C1` (stereo not shown) | 1.229% | 19.84% | 6.584% |
| `CCOc1cc(C(=O)n2cc(C)cn2)cc(OCC)c1OCC` | 2.132% | 2.151% | 5.845% |
| `CC(C)NC1CCc2c(ccc(=O)n2CCN2CCCC2=O)C1.O=C(O)C(F)(F)F` (stereo not shown) | - | - | 5.852% |
| `O=C(O)C(F)(F)F.[H][C@@]12COC[C@]1(CNC(=O)N1CCCC1)CN(Cc1cc(C)on1)C2` | - | - | 23.3% |
| `COCCCn1nnc(C2(NC(=O)c3ccccc3)CCCC2)n1` | 0.369% | 11.29% | 3.344% |
| `CC(=O)N1CC(C(=O)N2CCCC(Cn3ccnc3C)C2)C1` (stereo not shown) | 3.154% | 11.59% | 46.71% |
| `O=C(Cc1ccsc1)NCCc1ccoc1` | 8.824% | 7.692% | 3.728% |
| `Cc1c(CCC(=O)N2CCOC(c3cnccn3)C2)cnn1C` (stereo not shown) | -9.693% | 8.511% | 24.15% |
| `CC(CNC(=O)c1ccco1)N1CCc2sccc2C1` (stereo not shown) | 10.52% | 16.07% | 21.21% |
| `CCSc1cc(C(=O)N(Cc2cnn(C)c2)C(C)C)ccn1` | 4.3% | 4.651% | -5.077% |
| `CC(C)CN1CCNC(=O)C12CCN(C(=O)c1ccccn1)CC2` | -1.833% | -2.632% | -15.1% |
| `CCN(C)c1ncnc2c1CCN(S(=O)(=O)c1ccccc1)CC2.O=C(O)C(F)(F)F` | - | - | 43.14% |
| `CCc1ccc(CN2CCC3(CCCN(C(=O)N(C)C)C3)C2)o1` (stereo not shown) | 3.75% | 14.53% | 9.506% |

Some entries from above, unchanged:

With COc1ccc2c(=O)n(CC3CC3)ccc2c1OC the screen gave A: 1.008%; B: 9.091%; C: -5.202%.
With Cc1cc(NCc2cc(C)oc2C(F)(F)F)n2nc(C)cc2n1 the screen gave A: 3.68%; B: 16.39%; C: 41.42%.
With Cc1ccc(C(=O)N(Cc2ccc(F)cc2)C2CC2)c(=O)[nH]1 the screen gave A: 10.91%; B: 8.219%; C: 17.72%.
With Cn1ncc2ccc(C3CCCN(Cc4ccsc4)C3)nc21 (stereo not shown) the screen gave A: -7.895%; B: 14.39%; C: 29.86%.
With CC(C)NC1CCc2c(ccc(=O)n2CCN2CCCC2=O)C1.O=C(O)C(F)(F)F (stereo not shown) the screen gave C: 5.852%.
With CCN(Cc1ccncc1)C(=O)C1COc2c(cccc2OC)C1 (stereo not shown) the screen gave A: 1.229%; B: 19.84%; C: 6.584%.